Source: PubChem BioAssay AID743121 (NCATS, 2013)
Assay: 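Partners whose loss is lethal together with topoisomerase I blockade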 (primary screen). Cells: MDA-MB-231 cells, a human breast cancer line. Reagents: single siRNA against human genes, 20 nM siRNA (0.8 pmol per well). Timing: 120 h (drug added 48 h after transfection, read 72 h later). Treatment: camptothecin 20 nM (about EC30) for 72 h; vehicle 0.1% DMSO in parallel plates. Read-out: 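CellTiter-Glo ATP signal, scaled to control siRNA as percent viability; sensitisation given as log2 of untreated divided by camptothecin-treated viability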. Scale: log2 vehicle/camptothecin viability: higher = stronger sensitisation to camptothecin; viability with camptothecin and viability without drug: higher = more viable cells. Rule for the call: 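Active genes have an RSA gene-level p-value below 0.001, computed from the ratios of their separate siRNAs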.
Here is an unselected part of about 26,000 reagents tested. Over the whole deposit, 167 (0.63%) are marked active. 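Calls are per gene from RSA p-values that are not deposited; an individual active-marked siRNA can sensitise only weakly.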 Entries without a mark were called inactive. The numbers tell different reagents against one gene apart. Reagent sequences are not shown.

| log2 vehicle/camptothecin viability | viability with camptothecin (% of control) | viability without drug (% of control) | target | siRNA no. |
| --- | --- | --- | --- | --- |
| -0.551 | 58 | 39.6 | AMD1 | 1 |
| -0.263 | 77.7 | 64.8 | AMD1 | 2 |
| -0.288 | 78.3 | 64.1 | AMD1 | 3 |
| -0.384 | 90 | 69 | AMD1 | 4 |
| -0.404 | 102 | 77.4 | KIF5B | 1 |
| -0.168 | 73 | 65 | KIF5B | 2 |
| -0.207 | 117 | 101 | KIF5B | 3 |
| 0.0228 | 81.6 | 82.9 | ITGA1 | 1 |
| 0.13 | 95.7 | 105 | ITGA1 | 2 |
| 0.0113 | 95.1 | 95.9 | ITGA1 | 3 |
| -0.0271 | 65 | 63.8 | PLA2G2A | 1 |
| -0.602 | 67.8 | 44.6 | PLA2G2A | 2 |
| -0.229 | 77.1 | 65.8 | PLA2G2A | 3 |
| 1.09 | 15.1 | 32.1 | PLA2G2A | 4 |
| -0.465 | 94 | 68.1 | KIF12 | 1 |
| 0.429 | 72.4 | 97.5 | KIF12 | 2 |
| -0.134 | 56.3 | 51.3 | KIF12 | 3 |
| -0.00961 | 86 | 85.4 | KIF12 | 4 |
| 0.0296 | 48.8 | 49.8 | SOCS5 | 1 |
| -0.0477 | 107 | 103 | SOCS5 | 2 |
| 0.308 | 31.3 | 38.7 | SOCS5 | 3 |
| 0.28 | 71.5 | 86.8 | SOCS5 | 4 |
| -0.0272 | 107 | 105 | ERN1 | 1 |
| -0.221 | 73.4 | 62.9 | ERN1 | 2 |
| -0.144 | 101 | 91.8 | ERN1 | 3 |
| -0.686 | 110 | 68.4 | ERN1 | 4 |
| -0.149 | 65.9 | 59.5 | KIT | 1 |
| -0.462 | 61.1 | 44.4 | KIT | 2 |
| -0.251 | 93.7 | 78.7 | KIT | 3 |
| -0.00268 | 113 | 113 | KIT | 4 |
| -0.61 | 99.3 | 65.1 | BLNK | 1 |
| -0.232 | 86 | 73.2 | BLNK | 2 |
| -0.327 | 97.5 | 77.7 | BLNK | 3 |
| 0.853 | 51 | 92.1 | BLNK | 4 |
| -0.223 | 122 | 105 | HS3ST1 | 1 |
| 0.803 | 8.11 | 14.1 | HS3ST1 | 2 |
| -0.0771 | 70.9 | 67.2 | HS3ST1 | 3 |
| -0.407 | 55.9 | 42.1 | HS3ST1 | 4 |
| 0.13 | 79.2 | 86.6 | PPP1R11 | 1 |
| -0.275 | 92.8 | 76.7 | PPP1R11 | 2 |
| -0.28 | 81.8 | 67.4 | PPP1R11 | 3 |
| -0.112 | 70.5 | 65.3 | PPP1R11 | 4 |
| -0.463 | 90.6 | 65.7 | TMEM108 | 1 |
| -0.138 | 65.8 | 59.7 | TMEM108 | 2 |
| 0.099 | 74.9 | 80.3 | TMEM108 | 3 |
| -0.172 | 89.4 | 79.4 | TMEM108 | 4 |
| 0.432 | 21.9 | 29.5 | PRPF31 | 1 |
| -0.534 | 62.2 | 43 | PRPF31 | 2 |
| -0.384 | 63.8 | 48.9 | PRPF31 | 3 |
| 0.417 | 61.7 | 82.4 | TSPAN7 | 1 |
| -0.381 | 76.3 | 58.6 | TSPAN7 | 2 |
| -0.2 | 106 | 92.3 | TSPAN7 | 3 |
| 0.653 | 54.6 | 85.9 | CASP1 | 1 |
| 0.329 | 78.7 | 98.9 | CASP1 | 2 |
| -0.803 | 76.8 | 44 | CASP1 | 3 |
| 0.967 | 15.5 | 30.4 | CASP1 | 4 |
| -0.503 | 74.9 | 52.8 | RTN4R | 1 |
| -0.124 | 78.7 | 72.2 | RTN4R | 2 |
| 0.05 | 72.9 | 75.5 | RTN4R | 3 |
| -0.104 | 79.4 | 73.9 | CSF3 | 1 |
| -0.128 | 85.7 | 78.4 | CSF3 | 2 |
| -0.142 | 66.6 | 60.4 | CSF3 | 3 |
| -0.226 | 80.7 | 69 | CSF3 | 4 |
| -0.00545 | 46.2 | 46 | HMBS | 1 |
| 0.108 | 79.1 | 85.3 | HMBS | 2 |
| -0.571 | 77.2 | 52 | HMBS | 3 |
| -0.0186 | 51.8 | 51.1 | CHRNB3 | 1 |
| -0.231 | 105 | 89.8 | CHRNB3 | 2 |
| -0.233 | 77.6 | 66.1 | CHRNB3 | 3 |
| -0.199 | 75 | 65.3 | CHRNB3 | 4 |
| -0.156 | 114 | 102 | IL4 | 1 |
| -0.215 | 51.9 | 44.7 | IL4 | 2 |
| -0.218 | 120 | 103 | IL4 | 3 |
| -0.291 | 68 | 55.6 | IL4 | 4 |
| -0.22 | 90.7 | 77.9 | FZD7 | 1 |
| 0.143 | 68 | 75 | FZD7 | 2 |
| -0.512 | 63.3 | 44.4 | FZD7 | 3 |
| -0.565 | 80.3 | 54.3 | FZD7 | 4 |
| -0.25 | 65.9 | 55.4 | CLIC5 | 1 |
| 0.174 | 49.4 | 55.7 | CLIC5 | 2 |
| 0.0319 | 89.7 | 91.7 | CLIC5 | 3 |
| -0.148 | 68.8 | 62.1 | IL10RA | 1 |
| -0.382 | 83.6 | 64.2 | IL10RA | 2 |
| -0.258 | 48 | 40.2 | IL10RA | 3 |
| 0.0108 | 45.1 | 45.5 | IL10RA | 4 |
| -0.034 | 81.7 | 79.8 | SUV39H2 | 1 |
| -0.369 | 111 | 86.3 | SUV39H2 | 2 |
| 0.0155 | 101 | 102 | SUV39H2 | 3 |
| -0.201 | 94.5 | 82.2 | SUV39H2 | 4 |

12 entries already listed, sorted by “viability without drug (% of control)”, highest first:
| log2 vehicle/camptothecin viability | viability with camptothecin (% of control) | viability without drug (% of control) | target | siRNA no. |
| --- | --- | --- | --- | --- |
| 0.108 | 79.1 | 85.3 | HMBS | 2 |
| -0.128 | 85.7 | 78.4 | CSF3 | 2 |
| 0.05 | 72.9 | 75.5 | RTN4R | 3 |
| -0.104 | 79.4 | 73.9 | CSF3 | 1 |
| -0.124 | 78.7 | 72.2 | RTN4R | 2 |
| -0.226 | 80.7 | 69 | CSF3 | 4 |
| -0.142 | 66.6 | 60.4 | CSF3 | 3 |
| -0.503 | 74.9 | 52.8 | RTN4R | 1 |
| -0.571 | 77.2 | 52 | HMBS | 3 |
| -0.00545 | 46.2 | 46 | HMBS | 1 |
| -0.803 | 76.8 | 44 | CASP1 | 3 |
| 0.967 | 15.5 | 30.4 | CASP1 | 4 |
